{"source": "PubChem BioAssay AID1347426", "about": "(Functional Genomics Laboratory (NCATS/FGL), 2020)", "note": "Hit rate of the full screen: of about 31,000 sequences, about 1,400 (4.5%) were called active.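 How the source made its calls: active means median seed-adjusted z-score above 1 or below -1; inactive means the rest.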 This is one part of the list."}
{"test": "Novel Modifiers of Survival Motor Neuron (SMN) Protein: Gene Identification via Genome-wide siRNA Screen;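 further: luminescence tracks full-length SMN protein made from the SMN2 reporter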", "details": "HEK293T SMN2-luciferase reporter, siRNA knockdown, 72 h; actives lie on both sides", "method_in_brief": "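Genome-wide siRNA screen (10418 genes, 3 siRNAs each, 1 pmol per well) by reverse transfection in HEK293T cells stably carrying an SMN2-luciferase reporter; luminescence after 72 hours, normalized to negative-control siRNA, log10-transformed, MAD-scored.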"}
{"sequence": "UCUUUUGAAUGUAUACAGATT against ZNF468", "median seed-adjusted z-score": "inactive: -0.0435"}
{"sequence": "GAAUAAGGCUUGUAGUAAATT against FIGNL1", "median seed-adjusted z-score": "inactive: -0.408"}
{"sequence": "CCCUAACAGAUGAUCGUGATT against SETD2", "median seed-adjusted z-score": "inactive: -0.0192"}
{"sequence": "AAGCAGAGGUUGAUGCCGATT against ARHGEF1", "median seed-adjusted z-score": "inactive: -0.0658"}
{"sequence": "GAACGUGACAGAAUAAGCATT against HNF4G", "median seed-adjusted z-score": "inactive: 0.01"}
{"sequence": "CACUAUUCAUUGCUACCUATT against CNKSR2", "median seed-adjusted z-score": "inactive: -0.0536"}
{"sequence": "GGAAAUUAACCGCAGGGAATT against KRT34", "median seed-adjusted z-score": "inactive: 0.124"}
{"sequence": "GAAGCUAGCUUAUGCUGUUTT against DDX19B", "median seed-adjusted z-score": "inactive: -0.298"}
{"sequence": "GGAUUUUAUUCUUCACCGUTT against RBMS3", "median seed-adjusted z-score": "inactive: 0.0976"}
{"sequence": "GGAUAUGGAGUUACUCUUUTT against MGST1", "median seed-adjusted z-score": "inactive: -0.0144"}
{"sequence": "UGACAUCCGUAGAUCUUGATT against OAS3", "median seed-adjusted z-score": "inactive: 0.147"}
{"sequence": "GGUCGAUAAUACUAUCAAUTT against SETX", "median seed-adjusted z-score": "inactive: -0.709"}
{"sequence": "GCACCAUGACUGACCCUGATT against SEC14L2", "median seed-adjusted z-score": "inactive: -0.253"}
{"sequence": "GCGAAUUCGAUAAACGGUATT against PRL", "median seed-adjusted z-score": "inactive: 0"}
{"sequence": "GAAGCUAUUUUAAGAGGAATT against ZNF483", "median seed-adjusted z-score": "inactive: 0"}
{"sequence": "GAAUCAGUCCAAGAACAAUTT against GNRHR", "median seed-adjusted z-score": "inactive: 0.0978"}
{"sequence": "GAGGGUCUCUUCUUAAGUATT against CAD", "median seed-adjusted z-score": "active: 2.37"}
{"sequence": "CACUUUUUAUAUUUACGUATT against TSPAN4", "median seed-adjusted z-score": "inactive: 0.417"}
{"sequence": "GUCUAAAUGUUAUUAGGAATT against HNRPLL", "median seed-adjusted z-score": "inactive: 0"}
{"sequence": "AAGACGGCCGAGAACUUUATT against PPIH", "median seed-adjusted z-score": "inactive: -0.174"}
{"sequence": "CUGUGGGUGUGGAACCGUATT against TMEM86B", "median seed-adjusted z-score": "inactive: -0.465"}
{"sequence": "GCGUCUACCACAAUCAAUATT against BPTF", "median seed-adjusted z-score": "inactive: -0.273"}
{"sequence": "GGAAUAUCACUUCCAUACATT against NTRK3", "median seed-adjusted z-score": "inactive: 0"}
{"sequence": "GGAAAUACCGCAAAGACAATT against GALNT10", "median seed-adjusted z-score": "inactive: 0"}
{"sequence": "CGAUAUCUGACGCAGCUAATT against RPS6KA2", "median seed-adjusted z-score": "inactive: 0.139"}
{"sequence": "GCUGACAGCUUAGACUUUUTT against HOXA2", "median seed-adjusted z-score": "inactive: 0.335"}
{"sequence": "GGAAAACGGCAUUGCAGAATT against SLC23A2", "median seed-adjusted z-score": "inactive: -0.0585"}
{"sequence": "GGAUAUUAGUGUCGUGCAATT against ARHGEF7", "median seed-adjusted z-score": "inactive: 0.185"}
{"sequence": "CGCAAGUUCUAGACCUGGATT against DACH1", "median seed-adjusted z-score": "inactive: 0.562"}
{"sequence": "CCUCCGAAUUCUCAACAUATT against CSNK1E", "median seed-adjusted z-score": "inactive: -0.796"}
